Results of single-concentration screens

T. brucei: 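Whole-parasite assay of Trypanosoma brucei over 72 hours; the read-out is not stated. Concentration: 30 µM. Higher reads as stronger inhibition (inferred: compounds with an IC50 in retests scored well above the rest). Values scatter widely below zero; nearly all retest evidence comes from the higher of the two concentrations used. Of about 64,000 compounds tested this way, about 940 (1.5%) reached 50% or more in at least one test.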
Toxoplasma: 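Assay of Toxoplasma gondii numbers, read through their beta-galactosidase reporter with a colour substrate. Compounds at 10 µM. Higher reads as fewer parasites (inferred from which compounds were picked for retests). About 67,000 compounds were tested under these conditions; 0.38% (about 260) showed 50% or more at least once.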

The filed quantity is “Percent Effect” (%).
The controls that fix the scale are not given in the record; negative values are as filed.
The compounds are a random part of those screened.
A dash means the value is not listed here; it may have been measured.

Compound,T. brucei,Toxoplasma
O=C(O)C(F)(F)F.[H][C@@]12CCN(Cc3nccs3)[C@]1([H])CC[C@H](C(=O)N1CCOCC1)O2,-77.67%,-1.679%
O=C(NCCC1CC1)NCc1cccc(-n2ccnc2)c1,-10.54%,1.902%
Cl.O=C(Nc1cc(C(F)(F)F)c[nH]c1=O)C1CCCCN1 (stereo unspecified),4.306%,-
CC(C)c1noc(CCC(=O)NC(C)c2ccccn2)n1 (stereo unspecified),9.728%,-23.44%
CCCOc1cccc(C(=O)N2CCCC(n3cncn3)C2)c1 (stereo unspecified),9.016%,-10.91%
N#Cc1c(F)cccc1Nc1cnn(CC(O)CN2CCOCC2)c1 (stereo unspecified),-14.98%,-1.215%
CCOc1cc(C(=O)N2CCCC(c3noc(CC)n3)C2)ccn1 (stereo unspecified),-15.31%,3.432%
CCN(CC)CCn1cc(NC(=O)CNc2ccccc2OC)cn1,-9.308%,2.822%
Cc1nc(C)n(CC2CCCN(CCCS(=O)(=O)N(C)C)C2)n1 (stereo unspecified),-42.61%,-11.71%
Nc1nc2c(s1)C(c1c(F)cccc1Cl)CC(=O)N2 (stereo unspecified),-56.29%,10.7%
CCc1nc(CNC(=O)c2ccc(C(C)N3CCCCC3)o2)cc(=O)[nH]1 (stereo unspecified),-23.94%,8.471%
CCN(Cc1noc(C)n1)C(=O)CC1C(=O)NCCN1CC(C)(C)C (stereo unspecified),3.247%,1.783%
CC1c2ncc(CN3CCN(C)CC3)n2CCN1Cc1ccsc1.O=C(O)C(F)(F)F.O=C(O)C(F)(F)F.O=C(O)C(F)(F)F (stereo unspecified),-19.52%,17.23%
[H][C@]12CN(c3cc(C#N)ccn3)CC[C@@]1(O)CCN(S(C)(=O)=O)C2,-35.97%,11.53%
CCOCC1CCN(C(=O)Nc2ccc(-c3csnn3)cc2)C1 (stereo unspecified),-11.23%,-6.662%
CCc1ccc(CN2CCC(CNS(=O)(=O)C3CC3)C2)nc1 (stereo unspecified),6.621%,1.787%
COc1ncc(C(=O)N2CCC3(CC2)C(=O)Nc2ccccc23)cn1,-203%,-10.18%
CCNC(=O)N1CCC(n2ccc(C(F)(F)F)n2)CC1,-29.96%,0.9717%
O=C(c1ccccc1F)N1CC(c2nc(C3CC3)no2)C1,6.349%,-2.059%
CC(C)NS(=O)(=O)c1cc(C(=O)O)cc(-c2ccccc2CO)c1,-11.41%,10.49%
CCOc1ncccc1C(=O)N(C)C1CCN(c2ccccn2)CC1,-,1.685%
CSc1nccc(N2CCCC(c3nccn3C(C)C)C2)n1 (stereo unspecified),-62.98%,3.696%
[H][C@@]12CS(=O)(=O)C[C@]1([H])N(Cc1cccc(C)n1)CCN2C(=O)N(C)C,-26.82%,-4.723%
Cc1nnc2ccc(N3CCN(CCc4ccccn4)CC3)nn12,-,-23.35%
O=C(O)C(F)(F)F.O=S(=O)(C1CC1)N1CCC2(CC1)CC(Oc1cccnc1)CO2 (stereo unspecified),13.28%,-9.787%
O=C(CCCn1cncn1)N1CCCC1c1nc(-c2ccccc2)no1 (stereo unspecified),9.152%,3.973%
COc1ccc([C@@H]2C[C@H](NC(C)=O)C[C@H](Cc3ccccc3)O2)cn1,11.4%,3.034%
Cc1cc(-c2cnn(CCNC(=O)c3cnn(C)c3)c2C2CC2)on1,1.673%,5.346%
CN(C)c1cc(CNC(=O)Nc2nncs2)ccn1,-,14.39%
COCC(=O)NCc1nn(CCN2CCCC2)c(=O)c2ccccc12,-24.25%,94.96%
Cc1ccccc1N1CCN(C(=O)Cc2ccc3c(c2)OCO3)CC1=O,-18.99%,1.311%
Cc1nc(C2CCCN(C(=O)c3ccc(Cn4cccn4)o3)C2)no1 (stereo unspecified),7.335%,0.6353%
COCC1CN(CC2CC2)Cc2nn(C)cc21.O=C(O)C(F)(F)F (stereo unspecified),-43.76%,-20.41%
O=C(CCNC(=O)c1cccc(OC(F)F)c1)Nc1cccnc1,-1.693%,5.273%
CN(CCCO)c1nc(-c2ccc(C(N)=O)cc2)nc2c1CCNC2,-6.351%,-27.11%
CN1CCC(N2CCN(C(C(=O)O)c3cccc4c3OCC4)CC2)CC1 (stereo unspecified),-11.15%,5.877%
CC1N(C)C(=O)COC12CCN(C(=O)Cc1ccsc1)CC2 (stereo unspecified),-54.17%,0.3776%
COc1c(C2CCCN2Cc2noc(C(C)C)n2)c(C)nn1C (stereo unspecified),-6.543%,-1.355%
Cn1cc(CN2CCC(F)(F)C3(CCN(c4ncccn4)C3)C2)cn1.O=C(O)C(F)(F)F.O=C(O)C(F)(F)F (stereo unspecified),-14%,6.211%
CCC(C(=O)N(C)CCC1=CCN(C)CC1)c1ccccc1 (stereo unspecified),-35.65%,16.24%
O=C1CC2(CCN(c3nccc(-c4cc(C(=O)O)ccn4)n3)CC2)CN1,3.926%,2.264%
CC(C)c1nnc2n1CCN(C(=O)c1cccc(S(C)(=O)=O)c1)C2,-3.937%,-9.27%
Oc1nnc(-c2cccs2)c2sc(N3CCCC3)nc12,-18.82%,-20.77%
CO[C@@H]1CCN(c2nnc(C)s2)C[C@@H]1Cc1ccccc1.O=C(O)C(F)(F)F,-5.303%,-0.2463%
CN(Cc1ccccn1)C1CC2(CCN(Cc3cccnc3)CC2)C1.O=C(O)C(F)(F)F.O=C(O)C(F)(F)F.O=C(O)C(F)(F)F,-16.66%,2.052%
Cc1nc(CCNC(=O)NCC(c2ccco2)N(C)C)cs1 (stereo unspecified),-28.73%,13.41%
C[C@@H](O)CNC(=O)CCc1nc2cccnc2[nH]1,-42.88%,-1.506%
CCOC(=O)c1coc(N2CCC(N3CCC(O)CC3)CC2)n1,-19.57%,-2.941%
O=C(O)C(F)(F)F.[H][C@@]12C[C@H](C(=O)NC3CCC3)[C@@]([H])(CN(CC3CC3)C1)O2,-54.56%,2.048%
O=C(O)C(F)(F)F.O=C(O)C(F)(F)F.O=C(O)C(F)(F)F.c1ccc(CN2CCc3ncnc(N4CCCC4)c3CC2)nc1,-48.21%,-5.543%
CCCNC(=O)CCNC(=O)N1CCc2c(F)ccc(F)c2C1,-4.993%,1.955%
Cc1cc(S(C)(=O)=O)c(C)c(S(=O)(=O)N2CCCCCC2)c1,-2.904%,0.8738%
COc1cc(NC2CCS(=O)(=O)C2)ncn1 (stereo unspecified),-18.23%,-22.22%
COCCN(Cc1cccnc1)S(=O)(=O)c1cc(C)ccc1F,28.3%,11.4%
COc1ccc(NC(=O)c2cnc(N3CCN(C)CC3)nc2C)cc1,-5.896%,12.67%
COCc1ccccc1NC(=O)NC(C)c1ccc(C)o1 (stereo unspecified),-17.28%,9.681%

4 of the entries, repeated:

Result for Cc1nc(C2CCCN(C(=O)c3ccc(Cn4cccn4)o3)C2)no1 (stereo unspecified) was T. brucei: 7.335%; Toxoplasma: 0.6353%.
Result for COc1ncc(C(=O)N2CCC3(CC2)C(=O)Nc2ccccc23)cn1 was T. brucei: -203%; Toxoplasma: -10.18%.
Result for C[C@@H](O)CNC(=O)CCc1nc2cccnc2[nH]1 was T. brucei: -42.88%; Toxoplasma: -1.506%.
Result for Cc1nc(C)n(CC2CCCN(CCCS(=O)(=O)N(C)C)C2)n1 (stereo unspecified) was T. brucei: -42.61%; Toxoplasma: -11.71%.

From ChEMBL document CHEMBL3988442, “University of Dundee, Small-Polar-MMV Screening Library” (2021).